The list shows a part of the results. These are further read-outs of the screen, such as a control signal, another cell line or another target. No call is given for them. The list favours compounds with an active or inconclusive main result. The note in brackets gives the kind of curve behind each potency; many fits are weak.
Assay: qHTS Assay for Lipid Storage Modulators in Drosophila S3 Cells;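 for cell number change: cells counted by Cell Tracker Red CMTPX staining in the red channel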
Details: BODIPY lipid droplet fluorescence, 18-24 h; for cell number change: measured here: cell count max response, cells fed with added oleic acid
Summary of the method: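 Drosophila S3 cells loaded with oleic acid (400 uM, as added) and compounds at several concentrations; lipid droplets imaged by 488-nm laser-scanning cytometry, 500–530 nm intensity and object ratio to cell channel. Percent activity normalized to 20 uM Triacsin C.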

[1] = measured here: cell number channel AC50, cells fed with added oleic acid
[2] = measured here: lipid fluorescence (Fed channel) AC50, cells fed with added oleic acid

Structure (SMILES)	cell number change [%]	AC50 [1]	AC50 [2]
O=c1oc2ccccc2c(NC2CCCCC2)c1NS(=O)(=O)c1ccc(Cl)cc1	-37.8	32.6 µM [falling, single point]	–
COc1ccc(CN2CC(C(=O)NCCCN3CCCCC3)CC2=O)cc1 (centres undefined)	-34.4	7.31 µM [falling, partial curve]	–
CC1(c2ccc(OC(F)F)cc2)NC(=O)N(CC(=O)Nc2ccc(N3CCCCC3)cc2)C1=O (centres undefined)	–	–	6.51 µM [rising, single point]
O=C(/C=C/c1ccccc1)Nc1ccc(Cl)cn1	-0.319	6.51 µM [rising, single point]	–
CCc1c(C)nc(SCC(=O)N2CCCCC2)[nH]c1=O	29.8	–	20.6 µM [rising, single point]
CCNC(=S)Nc1cc(-c2ccc(Cl)cc2)[nH]n1	7.85	–	0.164 µM [falling, full curve, poor fit]
CC1=C(C(=O)Nc2cc(C)ccn2)C(c2ccc(C)cc2)C2=C(CCCC2=O)N1 (centres undefined)	-2.55	–	–
CN1C(=O)c2ccccc2N(C)C1c1ccccc1Cl (centres undefined)	31	9.2 µM [rising, partial curve, poor fit]	–
O=C(CSc1nc2ccccc2c(=O)[nH]1)Nc1cccc([N+](=O)[O-])c1	8.42	2.91 µM [rising, single point]	–
Oc1ccc(NC(=S)N=Nc2c(O)[nH]c3ccc(Br)cc23)cc1	-56.1	16.4 µM [falling, single point]	29.1 µM [falling, single point]
COc1ccccc1CNC(=O)c1cnc2ccccn2c1=O	58.9	6.51 µM [rising, partial curve]	4.11 µM [rising, partial curve]
CCOC(=O)N1CCN(c2c(NCc3ccc(Cl)cc3)c(=O)c2=O)CC1	-28.6	–	29.1 µM [falling, partial curve, poor fit]
O=c1[nH]c(C(Cl)Cl)nc2sc3c(c12)CCN(Cc1ccccc1)C3	4.71	–	0.00411 µM [falling, full curve, poor fit]
CC1CC(C)CN(CCCNC(=O)CCNC(=O)Cn2ccc3ccccc3c2=O)C1 (centres undefined)	-106	32.6 µM [falling, partial curve]	5.8 µM [rising, partial curve, poor fit]
Cc1ccc2c(c1)c1c(n2CC(O)CNC2CCCC2)CCCC1 (centres undefined)	2.17	–	–
CCc1ccccc1Oc1ccc(S(=O)(=O)N2CCN(C)CC2)cn1	–	6.51 µM [rising, single point]	–
CC(C)(O)[C@H](O)COc1c2ccoc2cc2oc(=O)ccc12	21.1	–	3.26 µM [rising, partial curve]
Cc1cc2ccccc2c(=O)n1CC(=O)NCC(=O)N1CCN(c2ccccc2)CC1	-26.5	–	–
N#Cc1c(N)n(CCOC(=O)c2cccc(Br)c2)c2nc3ccccc3nc12	-32.1	29.1 µM [falling, single point]	1.84 µM [rising, full curve]

Structure (SMILES)	cell number change [%]	AC50 [1]	AC50 [2]
C=C(C)C(=O)Nc1nnc(-c2cccs2)s1	-48.9	32.6 µM [falling, single point]	32.6 µM [falling, single point]
O=C(/C=C/c1c(F)cccc1Cl)Nc1nc2ccccc2[nH]1	5.09	–	18.4 µM [rising, single point]
CCOc1ccccc1C(=O)N/N=C/c1coc2ccc(Cl)cc2c1=O	-6.65	–	32.6 µM [falling, partial curve, poor fit]
O=C(NCC1CCCO1)c1ccccc1-c1nc(-c2ccc(Cl)cc2)no1 (centres undefined)	–	–	5.17 µM [rising, partial curve]
CC1(C(=O)NC(=S)N(CCC#N)c2ccccc2)CC1(Cl)Cl (centres undefined)	–	1.16 µM [falling, full curve]	6.51 µM [falling, single point]
NS(=O)(=O)c1ccc(NC(=O)COC(=O)C2CC(=O)N(Cc3ccccc3)C2)cc1 (centres undefined)	52.1	–	–
Cc1ccc(/C=N/n2nnnc2N)cc1[N+](=O)[O-]	-29.7	–	–
COc1ccccc1NC(=O)C(C)NC(c1ccccc1)c1ccccc1 (centres undefined)	18.7	–	4.47 µM [rising, full curve, poor fit]
Cc1ccc(-c2cn(CCC(=O)O)c(-c3ccc(Cl)nc3)n2)cc1	-18.5	–	5.17 µM [rising, partial curve, poor fit]
Cc1cc(OCC(=O)O/N=C(\N)c2ccccc2)ccc1Br	9.35	–	4.11 µM [rising, full curve, poor fit]
O=C(NN1C(=O)NC2(CCCCC2)C1=O)c1ccc(-c2ccc([N+](=O)[O-])cc2)o1	7.6	–	7.31 µM [rising, partial curve]
CCCC(C(=O)O)n1c(O)c(C=C2N=c3ccccc3=N2)sc1=S (centres undefined)	7.1	–	0.651 µM [rising, single point]
O=C(COC(=O)/C=C/C(=O)OCC(=O)NC12CC3CC(CC(C3)C1)C2)NC12CC3CC(CC(C3)C1)C2	-43.5	23.1 µM [falling, partial curve, poor fit]	18.4 µM [falling, partial curve]
CCOc1ccccc1NS(=O)(=O)N(C)C	10	–	0.00461 µM [rising, full curve, poor fit]
C[C@]12CC[C@@H]3c4ccc(O)cc4CC[C@H]3[C@@H]1C[C@@H](O)[C@@H]2O[C@@H]1O[C@H](C(=O)O)[C@@H](O)[C@H](O)[C@H]1O	24	–	11.6 µM [rising, single point]
CCOC(=O)C1=C(C)Nc2ccccc2N/C1=N\S(=O)(=O)c1ccc(Cl)cc1	-6.87	–	0.92 µM [falling, full curve]
CN(C)S(=O)(=O)c1ccc(C(=O)N2CCC(c3nc4ccccc4o3)CC2)cc1	–	4.61 µM [rising, single point]	6.51 µM [rising, single point]
O=C(CNC(=O)c1ccc(Cl)cc1Cl)OCC(=O)N1CCCC1	-4.4	–	1.84 µM [rising, partial curve]
COC(=O)c1onc(-c2ccccc2)c1C(=O)OC	–	6.51 µM [falling, single point]	2.59 µM [falling, full curve, poor fit]

Structure (SMILES)	cell number change [%]	AC50 [1]	AC50 [2]
CC(=O)c1cccc(Nc2ccc(-c3ccccc3F)nn2)c1	-10.4	–	–
CCN(CC)c1ccc(C(=O)NNC(=O)CN2C(=O)NC(C)(c3ccccc3)C2=O)cc1 (centres undefined)	34.2	25.9 µM [rising, single point]	5.8 µM [falling, partial curve]
O=C(Nc1nc2ccccc2n1Cc1ccccc1)c1ccco1	-17.6	–	–
CCOC(=O)c1c(CN(C)C)n(C)c2c(O)c(N=NC(N)=O)c3ccc(Br)cc3c12	-49.3	32.6 µM [falling, single point]	29.1 µM [falling, single point]
COC(=O)c1cc(Cl)c(NC(=O)C(C)C)cc1OC	-21.7	1.64 µM [falling, partial curve, poor fit]	0.0731 µM [falling, full curve, poor fit]
CCOC(=O)C(Cc1c(F)cccc1F)(NC(C)=O)C(=O)OCC	-2.56	–	1.3 µM [falling, full curve]
COc1cccc(CN(C)C(=O)c2ccc3c(=O)n4c(nc3c2)CCC4)c1OC	-36.4	3.66 µM [falling, full curve, poor fit]	1.64 µM [falling, full curve]
CC(=O)NC(c1ccc2ccccc2c1)c1ccc2cccnc2c1O (centres undefined)	-66.2	20.6 µM [falling, partial curve]	–
CC1CCN(c2nnc(N)s2)CC1	-52	1.84 µM [falling, partial curve]	1.84 µM [falling, partial curve]
Cc1coc2c1c(C)cc1oc(=O)c(CC(=O)NCC(=O)O)c(C)c12	4.5	–	29.1 µM [rising, single point]
CCOC(=O)CC(NC(=O)CCS(=O)(=O)c1ccc2c(c1)n(C)c(=O)c(=O)n2C)c1ccc(C)cc1 (centres undefined)	-1.47	–	–
O=S(=O)(c1cccc(C(F)(F)F)c1)N1CCN(c2cnccn2)CC1	11.2	–	–
O=C(Nc1ccccc1Cl)C1CCCN1C(=O)OCc1ccccc1 (centres undefined)	-18	0.00411 µM [falling, full curve, poor fit]	29.1 µM [rising, single point]
CCCn1c(C)cc(-c2csc(N)n2)c1C	–	2.91 µM [rising, partial curve]	2.91 µM [rising, partial curve]
Cc1ccc(S(=O)(=O)N/N=C/c2cccc(OC3CSC3)c2)cc1	-59.7	1.3 µM [falling, full curve]	1.16 µM [falling, full curve]
Cc1ccc(NC(=O)c2sccc2-n2cccc2)c(C)c1	69.1	0.326 µM [rising, partial curve, poor fit]	0.082 µM [rising, full curve, poor fit]
C/C(=N\NC(=O)CSc1nc(C)cc(C)n1)c1cccc([N+](=O)[O-])c1	1.74	–	0.00517 µM [rising, full curve, poor fit]
CC(C(=O)N1c2ccccc2CCc2ccccc21)n1nnc(-c2ccc(N(C)C)cc2)n1 (centres undefined)	-10.6	–	32.6 µM [falling, single point]

In a second layout: results already given.
CCOC(=O)N1CCN(c2c(NCc3ccc(Cl)cc3)c(=O)c2=O)CC1
  cell number change [%]: -28.6
  AC50 [2]: 29.1 µM [falling, partial curve, poor fit]
O=c1[nH]c(C(Cl)Cl)nc2sc3c(c12)CCN(Cc1ccccc1)C3
  cell number change [%]: 4.71
  AC50 [2]: 0.00411 µM [falling, full curve, poor fit]
CC1CC(C)CN(CCCNC(=O)CCNC(=O)Cn2ccc3ccccc3c2=O)C1 (centres undefined)
  cell number change [%]: -106
  AC50 [1]: 32.6 µM [falling, partial curve]
  AC50 [2]: 5.8 µM [rising, partial curve, poor fit]

Reference: PubChem BioAssay AID2685 (National Center for Advancing Translational Sciences (NCATS), 2010)
